# Data as given in PubChem BioAssay AID493014 (National Center for Advancing Translational Sciences (NCATS), 2011).
# Out of some 340,000 compounds screened, about 170 (0.05%) were called active. Inconclusive results, whose numbers are uncertain, are shown with a selection of clear calls. Calls come from the whole dose curve; as a rule, active = well fitted inhibition curve with a large enough effect in the signal ratio, with a control signal flat (not every such curve was filed as active); inconclusive = small, poorly fitted or top-dose-only effect, or effect the other way, or a change in a side signal; inactive = flat fitted curve, though single readings scatter; the % refers to the signal ratio. Where the call is inconclusive, the potency comes from a doubtful curve fit.
# Experiment: qHTS Assay to Find Inhibitors of Chronic Active B-Cell Receptor Signaling;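 for activity change, negative = inhibition: plate controls were basal doxycycline-induced cells for no effect and cells given 10 µM MG132 for full effect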
# Details: ABC-DLBCL IkBa-CBG/CBR reporter, luminescence ratio (green luciferase fused to IkBa over red control in TMD8 lymphoma cells), 4 h; activity change, negative = inhibition: at 46.1 µM (top of the series) unless noted
# Procedure, shortened: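 Compounds up to 46 uM were incubated four hours with TMD8 cells whose green CBG68 luciferase is fused to IkappaBalpha; red CBR luminescence normalised the signal, and concentration-effect curves were fitted to fusion, red and ratio data.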
# Potency is the fitted concentration of half-maximal effect.
Compound,Potency,"activity change, negative = inhibition"
COc1ccc(-c2cc3nc(C)c(CCC(=O)N4CCN(c5ccccn5)CC4)c(C)n3n2)c(OC)c1,"inconclusive: 15.8 µM [falling, partial curve]",
COc1ccc(-c2csc(NC(=O)Cc3ccccc3F)n2)cc1OC,"inconclusive: 17.8 µM [falling, single point]",
COc1ccc(/C=C/C(=O)O)cc1Cl,,inconclusive: 8.93%
Cc1cccc(NC(=O)CN(C)CC(=O)NC(c2ccccc2)c2ccccc2)c1C,,inconclusive: -2.5%
CC(C)N(C(=S)Nc1cccc(C(F)(F)F)c1)C(C)c1ccccn1 (stereo not given),,inconclusive: -140%
CC(C)(C)NC(=O)CSC(=Nc1cccc(F)c1)NC#N,,inconclusive: -5.2%
COc1ccc(/C=C/C(=O)O)cc1S(=O)(=O)NC1CCS(=O)(=O)C1 (stereo not given),,inconclusive: 4.78%
Cc1cc2cc3c(cc2nc1SCC(=O)OC(C)C)OCO3,,inconclusive: 18.1%
O=C(CC1SC2=NCCN2C1=O)Nc1ccc(Br)cc1 (stereo not given),,inactive: 8.8%
COC(=O)CCCC1=CC2=CC(=O)C(C)(OC(=O)c3cccs3)C(=O)C2=CN1CCc1ccccn1 (stereo not given),,inconclusive: 4.19%
COc1cc(C(=O)N(Cc2cccnc2)c2nc3cc(C)c(C)cc3s2)cc(OC)c1OC,,inactive: -1.88%
CN1c2ccccc2C(C)(C)C12C=Nc1c(cc(N3CCOCC3)c3ccccc13)O2 (stereo not given),"inconclusive: 10 µM [falling, partial curve]",
N=c1c2c(-c3ccccc3)c(-c3ccccc3)oc2ncn1CCCN1CCOCC1,"inconclusive: 14.1 µM [falling, partial curve, poor fit]",
CCOC(=O)c1ccc2c(c1)N(CC(=O)N1CCCC1)C(=O)C(C)(C)O2,,inconclusive: 4.84%
CCN(c1ccccc1)c1ncnc2c1cnn2-c1ccccc1,"inconclusive: 5.17 µM [rising, full curve, poor fit]",
O=C(NCc1ccc2c(c1)OCO2)c1cccc(S(=O)(=O)N2CCOCC2)c1,,inconclusive: -3.99%
CS(=O)(=O)c1ccc(-c2sc3ccccc3c2C#CCCO)cc1,,inconclusive: 4.72%
NC(=O)CC(NC(=O)Cc1ccc(Br)cc1)c1ccc(N2CCN(c3ccccn3)CC2)c([N+](=O)[O-])c1 (stereo not given),,inconclusive: 5.04%
O=C(NCCc1ccc(Cl)cc1Cl)c1cccnc1,,inconclusive: 5.99%
CC12COC3(C(=O)NCCc4ccccc4)CC1CCC32C (stereo not given),,inconclusive: 10.8%
c1coc(-c2nc3c([nH]2)CCc2nonc2-3)c1,"inconclusive: 9.2 µM [rising, partial curve]",
c1cc2c(cc1-c1[nH]ncc1CN1C[C@H]3CC[C@H]1C3)OCO2,,inconclusive: 3.89%
COc1cccc(SCc2noc(C(=O)NC(C)C)c2C(=O)O)c1,"inconclusive: 31.6 µM [falling, single point]",
N#Cc1ccc2c(c1)C[C@]1(c3ccsc3)OC3=C(C(=O)OC4(CCCCC4)C3)C2O1,,inconclusive: 16.6% [at 9.22 µM]
CCc1ccc(NC(=O)C2CCN(S(=O)(=O)c3ccc4[nH]c(=O)ccc4c3)CC2)cc1,,inactive: -6.87%
COc1ccc(/C=C/C(=O)c2cc3c(cc2N)OCO3)cc1,"inconclusive: 8.91 µM [falling, partial curve, poor fit]",

Compound,Potency,"activity change, negative = inhibition"
O=C(CNC(=O)c1ccc(Cl)cc1)OCC(=O)c1ccc2c(c1)OCCO2,,inactive: 7.34%
COc1ccc(S(=O)(=O)N2CCCCCC2)cc1C(=O)OCc1c(C)noc1C,,inactive: -13.7%
COc1ccc(C(=O)CC(=O)C(=O)Nc2cc([N+](=O)[O-])ccc2OC)cc1,,inconclusive: 9.8%
Cc1ccc(CNCC(O)(c2ccc(F)cc2)c2ccc(F)cc2)cc1,,inconclusive: -15.1%
CCOc1ccccc1N1CCN(C(=S)NCc2ccc(Cl)cc2)CC1,,inconclusive: -11%
Cc1ccccc1N1CCN(C2CCCN(C(=O)c3cn4cccc(C)c4n3)C2)CC1 (stereo not given),"inconclusive: 25.1 µM [falling, single point]",
COc1ccc(NC(=S)N(CCC(C)C)C2CCN(C(C)C)CC2)cc1,,inconclusive: 5.45%
CNc1oc(-c2cccc3ccccc23)nc1C#N,,inconclusive: 1.36%
CCn1cc(C(=O)NCCOC)c(=O)c2ccc(C)nc21,,inconclusive: 14.1%
CCCCn1c(SCC(=O)NCc2ccco2)nnc1-c1ccco1,,inconclusive: 6.11%
Cc1ccccc1-c1cc(C(=O)NCc2cccc(Br)c2)n(CC2CC(c3cccnc3)=NO2)n1 (stereo not given),,inconclusive: 0.206%
O=C(/C=C/c1ccc(Cl)cc1)NC(=S)Nc1ccc(NC(=O)c2ccco2)cc1,"inconclusive: 9.2 µM [falling, partial curve]",
O=C(OCCN1CCCCC1)c1c[nH]c2ccccc12,,inconclusive: 8.12%
N#CCC(=O)N/N=C\c1ccccc1OC/C=C/c1ccccc1,,inconclusive: 0.263%
COc1ccc(N2CCN(C(=O)CN(c3ccc(OC)cc3)S(=O)(=O)c3ccccc3)CC2)cc1,,inconclusive: 3.45%
COc1ccc(CCC(=O)NNC(=O)c2cc(Cl)ccc2OC)cc1,,inactive: -16.5%
CCOC(=O)c1c(NC(=O)CCN2CCOCC2)sc2c1CC(C)(C)OC2,,inconclusive: 3.62%
O=c1c(Cl)c(N2CCN(S(=O)(=O)c3ccc(F)cc3)CC2)cnn1-c1cccc(Cl)c1,"inconclusive: 10 µM [rising, partial curve, poor fit]",
COc1ccc(OCC(=O)Nc2nc3ccccc3[nH]2)cc1,,inconclusive: -14.4%
O=C(COC(=O)c1ccc(F)c(S(=O)(=O)N2CCOCC2)c1)NC1CC1,,inconclusive: 1.69%
COc1ccc(C2C(=O)N(C3CCC(C)CC3)CC(=O)N2C2CCCC2)cc1OC (stereo not given),,inactive: -2.85%
Cc1sc(NC(=O)CCCC(=O)O)c(C#N)c1C,,inconclusive: 8.02%
CC(C)(C)c1ccc(S(=O)(=O)n2c(CN3CCOCC3)nc3ccccc32)cc1,,inactive: -27.6%
O=S(=O)(Nc1cccc(Oc2ccc(Cl)cc2)n1)c1ccc(F)cc1,"inconclusive: 7.08 µM [falling, full curve, poor fit]",
COc1ccc(C2c3c(ncn(CCCN4CCOCC4)c3=N)Oc3ccc4ccccc4c32)cc1OC (stereo not given),,inconclusive: -23.2%
COC(=O)c1[nH]c2ccc(Br)cc2c1NC(=O)CN1CCCCC1CCO (stereo not given),,inconclusive: -0.173%

Compound,Potency,"activity change, negative = inhibition"
COC(=O)c1c(NC(=O)C2COc3ccccc3O2)sc2c1CCN(Cc1ccccc1)C2 (stereo not given),"inconclusive: 29.1 µM [rising, single point]",
c1cncc(CNc2ncnc3ccc(-c4cccnc4)cc23)c1,"inconclusive: 20.6 µM [falling, partial curve]",inconclusive: -11.5%
CCOC(=O)c1[nH]c2cc(OC)c(OC)cc2c1NC(=O)c1nonc1C,,inconclusive: 0.821%
c1ccc(-n2nnnc2NC2CCCCCC2)cc1,,inconclusive: 2.05%
O=C(Nc1ccc2nc3n(c(=O)c2c1)CCCCC3)c1c(F)ccc([N+](=O)[O-])c1F,"inconclusive: 3.16 µM [falling, partial curve]",
O=c1c2cc(Cl)ccc2[nH]c(=S)n1Cc1ccco1,,inconclusive: 8.9%
COc1ccc(S(=O)(=O)Nc2ccc(O)c3ccccc23)cc1,,inconclusive: 20%
O=C(COc1ccc(F)cc1Cl)NC1CCCCCC1,,inconclusive: 3.78%
Cn1c(O)c(C=Nc2ccc(Br)cc2)sc1=O,,inconclusive: 11.1%
COc1ccc2nc(NC(=O)c3cccs3)sc2c1,"inconclusive: 4.47 µM [rising, full curve, poor fit]",
COCCCNC(=O)Cn1c(=O)n(Cc2ccc(F)cc2)c(=O)c2sccc21,,inconclusive: 13%
Cc1nn(C)c(=O)c(N)c1-c1cc(-c2ccc(Cl)c(Cl)c2)n[nH]1,,inconclusive: 0.385%
O=C(Cn1cnc([N+](=O)[O-])n1)NCCc1ccccc1,,inconclusive: 15%
Cc1ccc(NCc2ccccc2)cc1,,inconclusive: 12%
Oc1cc(-c2cccnc2)cc2cccnc12,"inconclusive: 1.46 µM [cytotoxic, full curve, poor fit]",inconclusive: -8.67%
O=[N+]([O-])c1ccc(N2CCCCC2)cc1,,inconclusive: 2.74%
COc1cccc(NC(=O)CSC2=Nc3ccccc3C3=NC(CC(=O)NCc4ccc5c(c4)OCO5)C(=O)N23)c1 (stereo not given),,inconclusive: -12.7%
CC(=O)OC1COC(OC2C(O)C(C)OC(OC3C(OC4CCC5(C)C(CCC6(C)C5CC=C5C7CC(C)(C)CCC7(C(=O)O)CCC56C)C4(C)CO)OCC(O)C3O)C2O)C(O)C1OC(C)=O (stereo not given),"inconclusive: 31.6 µM [rising, single point]",
Cc1ccc(-n2nnnc2SCC(=O)N2CCCCC2)cc1,,inconclusive: 17.5%
CCCn1cnc2cc(NCc3ccccc3O)ccc21,"inconclusive: 25.1 µM [falling, single point]",
O=C(CN1C(=O)/C(=C\c2cccc(Cl)c2)Oc2ccccc21)N1CCN(c2ccccn2)CC1,,inconclusive: 6.4%
Cc1ccc(OC(=O)COc2ccccc2C)c(-n2nc3ccccc3n2)c1,,inconclusive: -5.35%
O=C(c1ccc2c(c1)OCCCO2)N1CCCCC1,,inactive: -1.11%
CN1CCC(NC(=O)Nc2cccc(C(F)(F)F)c2)CC1,,inconclusive: 4.49%
COc1ccc(/C(C)=N/NC(=O)c2ccncc2)cc1[N+](=O)[O-],"inconclusive: 35.5 µM [falling, partial curve, poor fit]",
CNC(=O)CSc1nnc(-c2ccc3c(c2)OCO3)n1C,,inactive: 5.39%
